The source of these data is the supplement of paper PMC12823440, “Inhibitors supercharge kinase turnover through native proteolytic circuits” (Nature, 2025).

Sequences of proteins named here, by UniProt entry; tags and fusion partners are left off. A change or cut given only in a name is not applied to a line headed by its entry.
UniProt Q9BUB5: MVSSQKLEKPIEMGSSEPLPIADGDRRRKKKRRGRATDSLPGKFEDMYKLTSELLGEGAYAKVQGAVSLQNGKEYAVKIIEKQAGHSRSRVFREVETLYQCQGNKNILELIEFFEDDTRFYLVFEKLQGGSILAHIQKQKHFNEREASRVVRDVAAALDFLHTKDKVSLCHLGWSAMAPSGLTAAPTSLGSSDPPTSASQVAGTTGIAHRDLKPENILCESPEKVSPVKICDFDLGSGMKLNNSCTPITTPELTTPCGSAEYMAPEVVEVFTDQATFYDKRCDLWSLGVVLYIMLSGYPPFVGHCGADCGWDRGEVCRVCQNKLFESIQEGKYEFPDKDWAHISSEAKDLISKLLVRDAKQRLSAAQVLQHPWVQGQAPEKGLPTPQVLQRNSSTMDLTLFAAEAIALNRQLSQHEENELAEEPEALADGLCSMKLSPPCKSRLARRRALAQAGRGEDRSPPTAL

Each structure is given as a SMILES string. Counter-ions that a name gives are not always drawn. This is one part of the list. Hit calls seldom repeat between salt and free forms of one compound.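 In K562 cells expressing nanoluciferase-fused kinases, luminescence was recorded at 4 h intervals between 2 and 18 h, normalized as percent of control with DMSO at 100% and a positive control at 0%. A significant (2 sigma) signal drop marks a time point as decreased. The authors' rule for a hit is not shown and takes in more than the number of time points.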

The test addresses MKNK1 (UniProt Q9BUB5). Briefly: number of time points (of 5) at which kinase-Nluc abundance scored as decreased, DMSO-normalised (count); higher = more persistent destabilization. To be noted: K562; 2-18 h.
Regarding `C=C(CCC=C(C)C)[C@H]1CC[C@]2(C)[C@@H]1[C@H](O)C[C@@H]1[C@@]3(C)CC[C@H](O[C@@H]4O[C@H](CO)[C@@H](O)[C@H](O)[C@H]4O[C@@H]4O[C@H](CO)[C@@H](O)[C@H](O)[C@H]4O)C(C)(C)[C@@H]3CC[C@]12C` [Ginsenoside Rk1] (10 µM), the “number of time points” value is 0.
Under `CCn1c(=O)c(-c2ccc(-c3cncs3)cc2Cl)cc2cnc(Nc3ccc(N4CCN(C)CC4)cc3)nc21` (2.5 µM) stands 0; under `Nc1nccc(Oc2ccc(NC(=O)c3cn(COP(=O)(O)O)cc(-c4ccc(F)cc4)c3=O)cc2F)c1Cl` (10 µM), 0; under `Cc1cc(-c2cc(OC(=O)c3ccccc3)ccc2Cl)cc2nnc(Nc3ccc(OCCN4CCCC4)cc3)nc12` (0.5 µM), 0.
The result for `OC[C@H]1O[C@@H](Oc2cc3c(O)cc(O)cc3[o+]c2-c2cc(O)c(O)c(O)c2)[C@H](O)[C@@H](O)[C@@H]1O` [Delphinidin 3-glucoside (chloride)] (10 µM) reads 0; that for `O=C(/C=C/c1ccc(O)c(O)c1)c1ccc(O[C@@H]2O[C@H](CO)[C@@H](O)[C@H](O)[C@H]2O)c(O)c1O` [Marein] (10 µM), 0.
Under `O=C1Nc2nc(-c3c(O)cccc3OCC3CC3)cc([C@@H]3CCCNC3)c2CO1` [Bay 65-1942 (hydrochloride)] (10 µM) stands 0.
On to `CC(C)CN(CC(=O)N1CCN(CC(OCc2ccc3ccccc3c2)c2ccc(Cl)cc2Cl)CC1)CC(C)C` (centres undefined) [LYN-1604 (dihydrochloride)] (2.5 µM), for which the “number of time points” value worked out at 0.
In the case of `CCc1cc(O)c(F)cc1-c1ccc2c(-c3nc4c([nH]3)CN(C3CCN(C)CC3)CC4)n[nH]c2c1` [JAK-IN-5 (hydrochloride)] (2 µM), the “number of time points” value is 0.
The result for `Cc1ccc(Nc2cc(-c3cccc(N4C(=O)c5ccccc5C4=O)c3)ncn2)cc1NS(C)(=O)=O` (10 µM) reads 1; that for `C=C1C(=O)O[C@@H]2C[C@@]3(C)CCC[C@H](C)C3=C[C@H]12` [Alantolactone] (10 µM), 0.
The result for `C=C(C)C(=O)Nc1cccc(-c2ncnc3[nH]cc(C(=O)OCC)c23)c1` (10 µM) reads 0; that for `CNc1nc(Nc2cnn(C3CCN(C4COC4)CC3F)c2Cl)ncc1C(F)(F)F` (centres undefined) (10 µM), 0.
The result for `Cc1cc(Nc2cc(Cl)nc(Oc3ccc([N+](=O)[O-])cc3)n2)n[nH]1` [Autophinib] (2.5 µM) reads 0; that for `CC(C)=CC[C@H](O)C1=CC(=O)c2c(O)ccc(O)c2C1=O` [(-)-Alkannin] (2.5 µM), 0.
As for `CNCc1ccccc1-c1csc([C@@H](C)Nc2nc(C)nc3cc(OC)c(OC)cc23)c1` (2.5 µM), the “number of time points” value came out at 0.
The result for `COc1ncc(-c2nc(N3CCOCC3)nc3c(CN4CCC(C(C)(C)O)CC4)cc(F)cc23)cc1NS(C)(=O)=O` [Linperlisib] (10 µM) reads 0; that for `O=C(Nc1ccc(F)cc1F)[C@H](NC(=S)Nc1cc(C(F)(F)F)cc(C(F)(F)F)c1)c1ccccc1` (2.5 µM), 0; that for `O=C1NC(=O)C(=Cc2ccc(-c3ccc(F)cc3)o2)S1` (stereo in doubt) (10 µM), 0.
Under `CCOc1cc(C(=O)N2CCC(N3CCN(C)CC3)CC2)ccc1Nc1ncc2c(n1)N(C1CCCC1)c1ccccc1C(=O)N2C` (10 µM) stands 0; under `OC(COc1ccc(C(F)(F)F)cc1)CN(Cc1ccccc1)Cc1ccccc1` (centres undefined) (2.5 µM), 0; under `C[C@@H]1C(=O)O[C@H](C)[C@H]1C[C@@H](O)[C@](C)(O)[C@H]1CC[C@@]2(O)C3=CC(=O)[C@@H]4C[C@@H](O)[C@@H](O)C[C@]4(C)[C@H]3CC[C@]12C` [Cyasterone] (10 µM), 0.
As to `Cc1c(CN2CCN(C(=O)[C@H](C)O)CC2)sc2c(N3CCOCC3)nc(-c3cnc(N)nc3)nc12` [Apitolisib] (10 µM), the “number of time points” value was 0.
The result for `CC(C)(C)NC(=O)c1cncn1C1CCN(c2ccc(-c3nnc(C(F)(F)F)o3)cn2)CC1` (10 µM) reads 0.
On to `NCc1ccc(Nc2ncc(F)c(Nc3ccccc3)n2)cc1` (10 µM), for which the “number of time points” value was 0.
Under `COC1(c2sc3c(N4CCOCC4)nc(-c4cnc(N)nc4)nc3c2C)COC1` (2.5 µM) stands 0; under `COc1cc2c[n+](C)c3c4cc5c(cc4ccc3c2cc1OC)OCO5` [Nitidine (chloride)] (2 µM), 0; under `N#Cc1ccc2ncnc(NC3CCC(N4CCOCC4)CC3)c2c1` (centres undefined) (10 µM), 0.
Under `COc1ccc2c(c1O)OC(C)(C)c1c-2ccc2c1C(=O)N(c1ccc(C(=O)c3ccccc3)cc1)C2=O` [Ampkinone] (10 µM) stands 0; under `CC1=C2C(=O)O[C@@H](c3ccoc3)[C@]2(C)CCC1` [Fraxinellone] (10 µM), 0.
Under `CS(=O)(=O)c1ccc(-c2cnc(N)c(C(=O)Nc3ccccc3)n2)cc1` (10 µM) stands 0; under `O=C(NC(NC(=S)Nc1ccc(F)c([N+](=O)[O-])c1)C(Cl)(Cl)Cl)C(c1ccccc1)c1ccccc1` (centres undefined) (10 µM), 0.
With `COc1cc(C(N)=O)nc(-c2cccc(C#C[C@]3(O)CCN(C)C3=O)c2)c1` (10 µM), the “number of time points” value was 0.
The result for `O=C(Nc1cc(Oc2cc(F)c(NC(=O)C3(C(=O)Nc4ccc(F)cc4)CC3)cc2F)ccn1)C1CC1` [Altiratinib] (10 µM) reads 0; that for `COc1ccc(Cl)cc1NC(=O)Nc1cc(C)nc2ccccc12` (2.5 µM), 0.
The result for `COc1ccc(CC(=O)Nc2nc3c(s2)CCc2ccccc2-3)cc1OC` (10 µM) reads 0; that for `N[C@H](Cc1c[nH]c2ccccc12)C(=O)N/N=C/c1ccc2nccnc2c1` [Rhosin (hydrochloride)] (10 µM), 0.
Under `CC(C)(C)c1ccc(S(=O)(=O)Nc2ccc(-n3ccnc3)cc2)cc1` (10 µM) stands 0.
Consider `Cc1ccc(-c2c(C(=O)CF)n(CCCO)c3ncnc(N)c23)cc1` (10 µM), for which the “number of time points” value stood at 0.
